Data as given in PubChem BioAssay AID1259299 (Sanger Institute, 2017).

Aim: 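Essential genes and drug-synergistic partners among kinases and colorectal mutation genes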 (primary screen)
Cell system: human CAR1 colorectal cancer cells
Reagents: siRNA pool against human genes
Challenge: anchor drug BYL719 1 µM, cetuximab 5 µg/ml or trametinib 10 nM, or DMSO vehicle alone; exposure length not given
Read-out: 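Mean replicate viability versus non-targeting controls, turned into robust z-scores, plus drug synergy scores for BYL719, cetuximab and trametinib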
Scale: viability robust z-score, knock-down alone: higher = more viable cells
Hit rule: 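a gene is called essential if its knock-down-alone viability z-score drops under -3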
Meaning of the calls: active = essential (knock-down alone); inactive = no change
Here is a random part of 794 deposited reagents. Over the whole deposit, 9 (1.1%) are marked active. 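Calls rest on knock-down alone; synergy scores play no part in calls, and no gene passed the synergy cut.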 Unmarked entries are inactive. Further read-outs or replicates are left out here. Reagent sequences are not shown. Not stated in the record: the amount of reagent, the time to read-out.

gene	viability robust z-score, knock-down alone
DYRK1A (GeneID 1859)	0.556
CDK15 (GeneID 65061)	0.789
NUP107 (GeneID 57122)	0.725
PRPS1L1 (GeneID 221823)	0.789
ACVRL1 (GeneID 94)	0.0932
ULK2 (GeneID 9706)	-0.117
BMPR2 (GeneID 659)	0.357
PRP4K (GeneID 8899)	-2.23
NUP62 (GeneID 23636)	-0.066
IRAK1 (GeneID 3654)	-1.52
CDC42BPG (GeneID 55561)	0.789
BRD2 (GeneID 6046)	0.537

2 of these entries, set out differently.
NUP62 (GeneID 23636) | viability robust z-score, knock-down alone: -0.066
IRAK1 (GeneID 3654) | viability robust z-score, knock-down alone: -1.52

More results follow:
gene	viability robust z-score, knock-down alone
MAP4K2 (GeneID 5871)	0.789
GALK1 (GeneID 2584)	-2.5
PTGS1 (GeneID 5742)	-1.35
TAF1 (GeneID 6872)	-0.311
MAP3K19 (GeneID 80122)	0.218
PTPRU (GeneID 10076)	-0.77
JAK1 (GeneID 3716)	0.789
MATK (GeneID 4145)	0.525
